Laboratory results: PubChem BioAssay AID1224826 (NIAID, 2016)

Assay: 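Regulators of Tlr4 signalling leading to Tnf-alpha expression in macrophages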 (primary screen)
Cells: RAW264.7 G9 macrophages from mouse bearing reporters for p65 (GFP) and the Tnf promoter (mCherry)
Reagent: siRNA pool against mouse genes, 100 nM
Time to read-out: 16 h of LPS stimulation, after 2 days of siRNA transfection
Treatment: bacterial lipopolysaccharide (Salmonella minnesota R595), 10 ng/ml
Read-out: 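Nuclear mCherry signal of the Tnf promoter reporter measured by imaging after background removal, scaled to each plate median and turned into robust z-scores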
Reading the numbers: Tnf reporter robust z-score: higher = stronger Tnf promoter reporter signal after LPS; Tnf reporter intensity: higher = stronger Tnf promoter reporter signal
Active means: 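a well counts as active at a score of -1.3 or below (Tlr4 knock-down control median) or above 3 (raised signal); controls and wells holding fewer than 50 cells are excluded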
Meaning of the calls: active = Tnf reporter clearly lowered or raised; inactive = no clear change in Tnf reporter
This is a random part of about 17,000 reagents tested. About 1,110 of all reagents (6.6%) were called active. 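Active means lowered or raised reporter signal; replicate intensities are raw and not normalised per plate.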

Target gene	Tnf reporter robust z-score	fewer than 50 cells in well	Tnf reporter intensity, replicate 1	Tnf reporter intensity, replicate 2	outcome
Spmip4 (sperm microtubule inner protein 4)		fewer than 50 cells per well; well left out of calls	86.5	33.4	inactive
Rnls (renalase, FAD-dependent amine oxidase)	0.69	enough cells in well	254	200	inactive
Mcoln1 (mucolipin 1)	-0.46	enough cells in well	257	144	inactive
Slf1 (SMC5-SMC6 complex localization factor 1)	0.28	enough cells in well	254	179	inactive
Sry (sex determining region of Chr Y)	0.89	enough cells in well	130	130	inactive
C1qtnf6 (C1q and tumor necrosis factor related protein 6)	-0.88	enough cells in well	91.1	95.5	inactive
Zfp423 (zinc finger protein 423)	0.28	enough cells in well	212	299	inactive
Actr6 (ARP6 actin-related protein 6)	1.38	enough cells in well	280	295	inactive
Ppcdc (phosphopantothenoylcysteine decarboxylase)	-1.15	enough cells in well	103	123	inactive
Mrgpra1 (MAS-related GPR, member A1)	0.67	enough cells in well	337	97.2	inactive
Rpl37 (ribosomal protein L37)	-0.65	enough cells in well	241	161	inactive
Mms19 (MMS19 cytosolic iron-sulfur assembly component)	2.45	enough cells in well	382	212	inactive
Apba3 (amyloid beta precursor protein binding family A member 3)	-0.24	enough cells in well	196	114	inactive
Prl2c4 (prolactin family 2, subfamily c, member 4)	-0.2	enough cells in well	236	84.9	inactive
Nfam1 (Nfat activating molecule with ITAM motif 1)	0.51	enough cells in well	202	47.1	inactive
Slc1a1	-0.08	enough cells in well	209	142	inactive
Mrps28 (mitochondrial ribosomal protein S28)	0.85	enough cells in well	306	128	inactive
Zfp68 (zinc finger protein 68)	-0.8	enough cells in well	45.2	91.6	inactive
Or10v5 (olfactory receptor family 10 subfamily V member 5)	4.73	enough cells in well	451	326	active
Gm9732 (predicted gene 9732)		fewer than 50 cells per well; well left out of calls	116	34.6	inactive
Egfl8 (EGF-like domain 8)	0.68	enough cells in well	267	117	inactive
Alyreffm1 (Aly/REF export factor family member 1)	-0.32	enough cells in well	210	50.6	inactive
Nceh1 (neutral cholesterol ester hydrolase 1)	-0.73	enough cells in well	123	103	inactive
E2f7 (E2F transcription factor 7)	1.7	enough cells in well	265	200	inactive
Lilrb4b	-1.01	enough cells in well	137	141	inactive
Wdr54 (WD repeat domain 54)	0.03	enough cells in well	216	126	inactive
Nt5c (5',3'-nucleotidase, cytosolic)	0.81	enough cells in well	222	205	inactive
Sprr2f (small proline-rich protein 2F)	0.51	enough cells in well	122	113	inactive
Mipep (mitochondrial intermediate peptidase)	0.27	enough cells in well	311	205	inactive

Sorted by “Tnf reporter intensity, replicate 2” (descending): some entries from above
Target gene	Tnf reporter robust z-score	fewer than 50 cells in well	Tnf reporter intensity, replicate 1	Tnf reporter intensity, replicate 2	outcome
Slc1a1	-0.08	enough cells in well	209	142	inactive
Prl2c4 (prolactin family 2, subfamily c, member 4)	-0.2	enough cells in well	236	84.9	inactive
Nfam1 (Nfat activating molecule with ITAM motif 1)	0.51	enough cells in well	202	47.1	inactive

The listing continues:
Target gene	Tnf reporter robust z-score	fewer than 50 cells in well	Tnf reporter intensity, replicate 1	Tnf reporter intensity, replicate 2	outcome
Bcr (BCR activator of RhoGEF and GTPase)	-0.4	enough cells in well	226	134	inactive
1700001O22Rik (RIKEN cDNA 1700001O22 gene)	-0.34	enough cells in well	185	76.3	inactive
Pla2g4b (phospholipase A2, group IVB (cytosolic))	-0.19	enough cells in well	205	202	inactive
Pramel27 (PRAME like 27)	0.82	enough cells in well	239	120	inactive
Vmn1r24 (vomeronasal 1 receptor 24)	1.77	enough cells in well	174	155	inactive
Utp25 (UTP25 small subunit processome component)	-0.92	enough cells in well	97.3	128	inactive
Serpinb2 (serine (or cysteine) peptidase inhibitor, clade B, member 2)	-0.73	enough cells in well	262	118	inactive
Pcdhgc4 (protocadherin gamma subfamily C, 4)	-0.91	enough cells in well	105	89.8	inactive
Rbm41 (RNA binding motif protein 41)	0.72	enough cells in well	242	195	inactive
Sstr4 (somatostatin receptor 4)	-0.33	enough cells in well	305	60.7	inactive
Cd34 (CD34 antigen)	0.64	enough cells in well	286	265	inactive
Or8k33 (olfactory receptor family 8 subfamily K member 33)	-0.48	enough cells in well	179	108	inactive
Dnaja3 (DnaJ heat shock protein family (Hsp40) member A3)	0.72	enough cells in well	223	148	inactive
Chml (choroideremia-like)	0.62	enough cells in well	280	269	inactive
Tmprss11e (transmembrane protease, serine 11e)	2.21	enough cells in well	290	258	inactive
Osbpl6 (oxysterol binding protein-like 6)	-0.26	enough cells in well	97.4	157	inactive
Or5b12b (olfactory receptor family 5 subfamily B member 12B)	1.06	enough cells in well	261	153	inactive
Txnrd2 (thioredoxin reductase 2)	-0.08	enough cells in well	250	192	inactive
Krt23 (keratin 23)	0.55	enough cells in well	188	183	inactive
S100g (S100 calcium binding protein G)	-0.36	enough cells in well	123	184	inactive
Lrp12 (low density lipoprotein-related protein 12)	-0.45	enough cells in well	109	157	inactive
Zar1 (zygote arrest 1)	-1.13	enough cells in well	77.2	73.6	inactive
Atp5mc2 (ATP synthase membrane subunit c locus 2)	-0.02	enough cells in well	213	121	inactive
Rnasek (ribonuclease, RNase K)	1.21	enough cells in well	276	232	inactive
Vmn1r16 (vomeronasal 1 receptor 16)	1.53	enough cells in well	178	138	inactive
Cgref1 (cell growth regulator with EF hand domain 1)	0.98	enough cells in well	324	280	inactive
Ftdc2 (ferritin domain containing 2)	-1.48	enough cells in well	98.3	43	active
Bclaf1 (BCL2-associated transcription factor 1)	-0.16	enough cells in well	125	169	inactive
C8b (complement component 8, beta polypeptide)	-0.7	enough cells in well	108	128	inactive
